PubChem BioAssay AID624297 (National Center for Advancing Translational Sciences (NCATS), 2012)
Hit rate of the full screen: of about 340,000 compounds, about 6,200 (1.8%) were called active. This list was built around the results that the source calls inconclusive (neither active nor inactive); the mix of calls is not that of the screen. Calls follow the shape of the dose curve; as a rule, active = well fitted activation curve with a large enough effect; inconclusive = small, poorly fitted or top-dose-only effect; inactive = no such curve, though single readings can be large or run the other way. Potencies of inconclusive entries are doubtful fits and often do not repeat.

Assay: A quantitative high throughput screen for small molecules that induce DNA re-replication in SW480 colon adenocarcinoma cells. Also: nearly all actives have a fitted effect of over 55% in size. As to re-replication activation: % of control where 0% means no effect.
Conditions: Hoechst DNA content imaging, 48 h; re-replication activation: at 46.1 µM (top of the series) unless noted
Procedure, shortened: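 SW480 cells exposed to compounds for 48 hr at 37 C, 5% CO2, then Hoechst-stained 40 min. Nuclear DNA content imaged by fluorescence scanning (405 nm excitation, 500-530 nm emission); re-replication scored as increased high-intensity nuclei.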
Potency is read from the fitted curve at half-maximal effect.

Row | SMILES | re-replication activation | Potency
1 | O=C(c1cccn2c(=O)c3cc(Br)ccc3nc12)N1CCN(c2ccccn2)CC1 | inactive: 0.739% | –
2 | COc1cc(C2/C(=C(\O)c3ccc4c(c3)CC(C)O4)C(=O)C(=O)N2CCN2CCOCC2)cc(OC)c1OC (stereo unspecified) | – | inconclusive: 23.1 µM [activator, single point]
3 | Cc1cccc(C2=NN(c3ccccc3)[C@@H](C(=O)N3CCOC3=O)[C@@H]2c2ccc(Cl)cc2)c1 | – | active: 25.9 µM
4 | COC(CNC(=O)c1cn(C)c2ccc(S(=O)(=O)N3CCOCC3)cc2c1=O)OC | – | inconclusive: 0.0046 µM [activator, full curve, poor fit]
5 | Cc1cc(C)cc(C(=O)N2CCN(Cc3ccc4c(c3)OCO4)CC2)c1 | – | inconclusive: 32.6 µM [activator, single point]
6 | CC(C)OCC1Cn2c(nc3c2c(=O)n(C)c(=O)n3C)O1 (stereo unspecified) | – | inconclusive: 7.31 µM [activator, partial curve, poor fit]
7 | CSc1ccc(C(=O)/C=C/c2ccc(N)cc2)cc1 | – | inconclusive: 20.6 µM [activator, single point]
8 | CCCNC(=O)c1cccc(Cn2nc(C)c(Br)c2C)c1 | inactive: 1.38% [at 9.22 µM] | –
9 | CCCOc1ccc(CCC(=O)N/N=C/c2ccc([N+](=O)[O-])o2)cc1 | inactive: -5.43% | –
10 | Cc1cccc(C(=O)O/N=C2\CCS(=O)(=O)c3sccc32)c1 | – | inconclusive: 32.6 µM [activator, partial curve, poor fit]
11 | COc1ccc(C(=O)OCC(=O)Nc2c(C)n(C)n(-c3ccccc3)c2=O)cc1OC | inactive: -10.3% | –
12 | CCOC(=O)N1CCN(S(=O)(=O)c2ccc(C(=O)NNc3nc4c(C)cc(C)cc4s3)cc2)CC1 | – | active: 5.8 µM
13 | Cc1ccccc1CN1CCN(S(=O)(=O)c2ccc(F)cc2)CC1 | inactive: -4.02% | –
14 | CCN(CC(=O)Nc1ccc(NC(C)=O)cc1)C(=O)/C=C/c1c(C)nn(-c2ccc(F)cc2)c1C | inactive: 11.1% | –
15 | C=Cn1cc[n+](CC(=O)c2ccc(Br)cc2)c1 | inactive: -1.86% | –
16 | CS(=O)(=O)c1ccc(Sc2nc3ccccc3[nH]2)c([N+](=O)[O-])c1 | inactive: 28.5% | –
17 | CCOc1cc(S(=O)(=O)n2cnc(C)c2)ccc1Cl | inactive: -15.9% | –
18 | CCOC(=O)c1cc(C#N)c(C)nc1N(CC)CC | – | inconclusive: 29.1 µM [activator, single point]
19 | Cc1cc(C)cc(NC(=O)Cn2nnc(C(=O)NCc3ccc4c(c3)OCO4)c2N)c1 | – | inconclusive: 16.4 µM [activator, single point]
20 | O=C(NNC(=O)C(c1ccccc1)c1ccccc1)c1ccccn1 | – | active: 4.11 µM
21 | COc1ccc(CN2CC[C@H]3C=CC[C@@H](C(=O)N4CCOCC4)[C@H]3C2=O)cc1OC | – | inconclusive: 0.0041 µM [activator, full curve, poor fit]
22 | Cc1ccccc1CSc1nc2c(c(=O)[nH]1)CCC2 | inactive: -3.23% | –
23 | COCCNC(=S)Nc1ccc2nc(N3CCN(C)CC3)cc(C)c2c1 | inactive: 8.14% | –
24 | Cc1ccc(CN2CCC(n3nccc3NC(=O)CCOc3ccccc3)CC2)cc1C | – | inconclusive: 23.1 µM [activator, single point]

Row | SMILES | re-replication activation | Potency
25 | CCc1ccccc1NC(=O)c1ccc([N+](=O)[O-])s1 | – | inconclusive: 16.4 µM [activator, single point]
26 | COC(=O)c1ccc(NC(=O)CCS(=O)(=O)c2ccc(Br)cc2)cc1 | inactive: 2.89% | –
27 | CCCN1CCC(NC(=O)CC2C(=O)NCCN2Cc2ccccc2C)CC1 (stereo unspecified) | inactive: -2.03% | –
28 | O=S(=O)(NCc1ccccn1)c1ccc(Cl)s1 | inactive: -75.8% | –
29 | COc1ccc(-c2cc(C(=O)Nc3nc4ccccc4s3)c3ccccc3n2)cc1OC | – | inconclusive: 18.4 µM [activator, single point]
30 | COc1cc(NS(=O)(=O)c2c(C(=O)N3CCOCC3)c(C)n(C)c2C)cc(OC)c1OC | – | inconclusive: 29.1 µM [activator, single point]
31 | COc1ccc(N(C)S(=O)(=O)c2cccc(C(=O)N(C)Cc3ccc(C)o3)c2)cc1 | inactive: 0.783% | –
32 | COc1ccccc1NS(=O)(=O)c1cc(NC(=O)CNC(=O)c2cc(C)cc(C)c2)ccc1C | – | inconclusive: 32.6 µM [activator, single point]
33 | C=C(CC1([C@@H](NP(=O)(c2ccccc2)c2ccccc2)[C@H]2C[C@@H]2CCCC)CC1)c1ccccc1 | – | inconclusive: 32.6 µM [activator, partial curve, poor fit]
34 | CC1(C)C[C@@H](O)[C@]2(C)CC[C@]3(C)C(=CCC4[C@@]5(C)CC[C@H](O)[C@](C)(CO)C5CC[C@]43C)[C@@H]2C1 (stereo partly specified) | inactive: 2.66% | –
35 | Cc1cc([N+](=O)[O-])ccc1NC(=O)c1cccc(NC(=O)C(C)C)c1 | inactive: -2.79% | –
36 | Cc1ccc(OCC(O)CN2CCN(CC(O)COC(C)C)CC2)c(C(C)(C)C)c1 (stereo unspecified) | – | inconclusive: 25.1 µM [activator, single point]
37 | CCOc1ccc2c(c1)S/C(=C\c1cccs1)C(=O)N2 | – | inconclusive: 18.4 µM [activator, single point]
38 | CN(CC(=O)Nc1ccc(Cl)c(C(F)(F)F)c1)C(=O)c1ccc(S(=O)(=O)N2CCOCC2)cc1 | – | inconclusive: 5.8 µM [activator, partial curve, poor fit]
39 | O=C1c2ccccc2C(=O)N1c1nccs1 | inactive: -1.5% | –
40 | Cc1ccc(C)c(NC(=O)c2sc(Cl)nc2C)c1 | inactive: -0.412% | –
41 | O=C(N/C(=C/c1cccc([N+](=O)[O-])c1)C(=O)N1CCOCC1)c1ccccc1Br | inactive: 12.4% | –
42 | COC(=O)C1CCC(=O)N1C(c1ccc(OC)cc1)c1cc(OC)c(OC)c(OC)c1 (stereo unspecified) | – | active: 0.731 µM
43 | CC(=O)Oc1ccc2cc(-c3ccccc3)c(=O)oc2c1 | – | inconclusive: 20.6 µM [activator, single point]
44 | CCc1nnc(NC(=O)C(NC(=O)c2ccccc2Cl)C(C)C)s1 (stereo unspecified) | – | inconclusive: 29.1 µM [activator, single point]
45 | CCCCN(CCCC)S(=O)(=O)c1ccc(C(=O)Nc2nnc(COC)o2)cc1 | – | inconclusive: 29.1 µM [activator, single point]
46 | Cc1cc2ncn(CCCCOc3ccccc3)c2cc1C | – | inconclusive: 23.1 µM [activator, single point]
47 | Cc1c(CC(=O)O)c(=O)oc2cc(OCc3ccc(Br)cc3)ccc12 | inactive: 1.94% | –
48 | CC(=O)c1ccccc1NC(=O)c1ccc2c(c1)NC(=O)C(C)S2 (stereo unspecified) | inactive: -14.8% | –

Row | SMILES | re-replication activation | Potency
49 | CC1CCN(CCNC(=O)C2CCCN(S(=O)(=O)c3cccc4nonc34)C2)CC1 (stereo unspecified) | – | inconclusive: 29.1 µM [activator, single point]
50 | O=C(Nc1nnc(SCC(=O)N2CCCCC2)s1)c1ccccc1F | – | inconclusive: 29.1 µM [activator, single point]
51 | Cc1cc(C)nc(NCCCc2ccccc2)n1 | inactive: -3.08% | –
52 | Cc1cccc(NC(=O)c2ccc(C(=O)c3ccccc3)o2)c1 | inactive: 4.17% | –
53 | C=CCc1ccc(OCCCCN2CCC(C)CC2)c(OC)c1 | – | inconclusive: 35.5 µM [activator, single point]
54 | CC1CCN(C(=O)c2cccc(S(=O)(=O)N3CCN(c4ccccc4)CC3)c2)CC1 | inactive: -12.7% | –
55 | O=C(NNc1nc2ccc(Cl)cc2s1)c1cc(-c2cccs2)nc2ccccc12 | – | inconclusive: 29.1 µM [activator, single point]
56 | O=C(N/N=C/c1ccc(O)cc1)c1ccc(NC(=O)c2ccccc2Br)cc1 | – | inconclusive: 2.91 µM [activator, partial curve, poor fit]
57 | COC(=O)c1ccc(CN2CCCC(CO)(Cc3ccccc3F)C2)cc1 (stereo unspecified) | – | inconclusive: 18.4 µM [activator, single point]
58 | CC(=O)Nc1ccc(S(=O)(=O)NC(C)C(=O)NCC(c2ccco2)N(C)C)cc1 (stereo unspecified) | inactive: -0.824% | –
59 | CCOC(=O)C1=C(CSc2nc(-c3ccncc3)ccc2C#N)OC(N)=C(C#N)C1c1ccc(OC)cc1 (stereo unspecified) | – | inconclusive: 23.1 µM [activator, partial curve, poor fit]
60 | COc1ccc(C)cc1S(=O)(=O)N(CC(=O)Nc1cccc([N+](=O)[O-])c1)c1ccc(C)c(C)c1 | – | inconclusive: 2.91 µM [activator, full curve, poor fit]
61 | O=C(CNCc1ccccc1)Nc1ccc(Oc2ccccc2)cc1 | – | active: 18.4 µM
62 | O=C(CNC(=O)c1ccc(F)cc1)N/N=C/c1cc(Br)ccc1OCc1ccccc1 | – | inconclusive: 29.1 µM [activator, partial curve, poor fit]
63 | COc1ccc(-c2cc(-c3cc(C)ccc3O)[nH]n2)cc1 | – | inconclusive: 9.2 µM [activator, partial curve]
64 | C=CCNC(=O)NC(=O)COC(=O)COc1ccc(Br)cc1F | inactive: -1.06% | –
65 | COc1ccc(-n2c(C)cc3cc(OC(C)=O)ccc32)cc1 | – | inconclusive: 18.4 µM [activator, partial curve]
66 | CCOC(=O)C1=CN(Cc2cccc(-c3cccnc3)c2)S(=O)(=O)N(C)C1C (stereo unspecified) | inactive: 3.54% [at 9.22 µM] | –
67 | C/C(CC(=O)Nc1ccccn1)=N\NC(=O)c1ccc2ccccc2c1 | inactive: -7.97% | –
68 | CCC(CC)c1nc(C#N)c(NCc2ccccc2)o1 | – | inconclusive: 20.6 µM [activator, single point]
69 | CCOC(=O)C1CCCN(/C=C2\SC(=S)N(CC)C2=O)C1 (stereo unspecified) | – | inconclusive: 1.64 µM [activator, partial curve, poor fit]
70 | CC1(C)Oc2ccc3ccc(=O)oc3c2/C(=C/Nc2ccccc2)C1=O | – | inconclusive: 15.8 µM [activator, partial curve, poor fit]
71 | CCOC(=O)C(C#N)=CN1CCN(C(=O)CCCl)c2ccccc21 | – | inconclusive: 29.1 µM [activator, single point]

Exported field by field: part of the list above
O=C(NNc1nc2ccc(Cl)cc2s1)c1cc(-c2cccs2)nc2ccccc12
  Potency: inconclusive: 29.1 µM [activator, single point]
COC(=O)c1ccc(CN2CCCC(CO)(Cc3ccccc3F)C2)cc1 (stereo unspecified)
  Potency: inconclusive: 18.4 µM [activator, single point]
O=C(CNCc1ccccc1)Nc1ccc(Oc2ccccc2)cc1
  Potency: active: 18.4 µM
C/C(CC(=O)Nc1ccccn1)=N\NC(=O)c1ccc2ccccc2c1
  re-replication activation: inactive: -7.97%
